# Measurements as given in the supplement of paper PMC8728848.
# The list shows a part of the results.
# Legend:
# Experiment in all cases: glycan array binding signal (z-score within array); higher = stronger binding
# Conditions in all cases: glycan notation: IUPAC condensed, linker removed
# [1] = target: Gal3S(b1-4)Glc
# Procedure, shortened: (§1)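 From the Consortium for Functional Glycomics database, 3228 arrays were curated, keeping only those whose protein sequence was available. Binding is given as a within-array Z-score averaged across arrays sharing a protein sequence and across linkers. Negative Z-scores can be read as non-binding.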
# [2] = target: Gal3S(b1-4)Glc6S
# Procedure, shortened: as §1
# [3] = target: Gal3S(b1-4)GlcNAc
# Procedure, shortened: as §1
# [4] = target: Gal3S(b1-4)[Fuc(a1-3)]Glc6S
# Procedure, shortened: as §1
# [5] = target: Gal3S(b1-4)[Fuc(a1-3)]GlcNAc
# Procedure, shortened: as §1
# [6] = target: Gal3S(b1-4)[Fuc(a1-3)]GlcNAc6S
# Procedure, shortened: as §1
# [7] = target: Gal3S4S(b1-4)GlcNAc
# Procedure, shortened: as §1
# [8] = target: Gal3S6S(b1-4)GlcNAc
# Procedure, shortened: as §1
# [9] = target: Gal3S6S(b1-4)GlcNAc6S
# Procedure, shortened: as §1
# [10] = target: Gal4S(b1-4)GlcNAc
# Procedure, shortened: as §1
# [11] = target: Gal4S6S(b1-4)GlcNAc
# Procedure, shortened: as §1
# [12] = target: Gal6P(b1-4)GlcNAc
# Procedure, shortened: as §1
# [13] = target: Gal6S(b1-3)GlcNAc
# Procedure, shortened: as §1
# [14] = target: Gal6S(b1-3)GlcNAc6S
# Procedure, shortened: as §1
# [15] = target: Gal6S(b1-4)Glc
# Procedure, shortened: as §1
# [16] = target: Gal6S(b1-4)Glc6S
# Procedure, shortened: as §1
# [17] = target: Gal6S(b1-4)GlcNAc
# Procedure, shortened: as §1
# [18] = target: Gal6S(b1-4)GlcNAc6S
# Procedure, shortened: as §1
# [19] = target: GalNAc(a1-3)Gal
# Procedure, shortened: as §1
# [20] = target: GalNAc(a1-3)GalNAc
# Procedure, shortened: as §1
# [21] = target: GalNAc(a1-3)GalNAc(b1-3)Gal(a1-4)Gal(b1-4)Glc
# Procedure, shortened: as §1
# [22] = target: GalNAc(a1-3)GalNAc(b1-3)Gal(a1-4)Gal(b1-4)GlcNAc
# Procedure, shortened: as §1
# [23] = target: GalNAc(b1-3)Gal
# Procedure, shortened: as §1
# [24] = target: GalNAc(b1-3)Gal(a1-4)Gal(b1-4)GlcNAc
# Procedure, shortened: as §1
# [25] = target: GalNAc(b1-3)Gal(a1-4)Gal(b1-4)GlcNAc(b1-3)Gal(b1-4)Glc
# Procedure, shortened: as §1
# [26] = target: GalNAc(b1-3)Gal(a1-6)Gal(b1-4)Glc
# Procedure, shortened: as §1
# [27] = target: GalNAc(b1-3)GalNAc
# Procedure, shortened: as §1
# [28] = target: GalNAc(b1-3)GlcNAc
# Procedure, shortened: as §1
# [29] = target: GalNAc(b1-4)Gal(b1-4)Glc
# Procedure, shortened: as §1
# [30] = target: GalNAc(b1-4)GlcNAc
# Procedure, shortened: as §1
# [31] = target: GalNAc(b1-4)GlcNAc(b1-2)Man
# Procedure, shortened: as §1
# [32] = target: GalNAc(b1-4)GlcNAc(b1-2)Man(a1-3)[GalNAc(b1-4)GlcNAc(b1-2)Man(a1-6)]Man(b1-4)GlcNAc(b1-4)GlcNAc
# Procedure, shortened: as §1
# [33] = target: GalNAc(b1-4)GlcNAc(b1-3)GalNAc(b1-4)GlcNAc
# Procedure, shortened: as §1
# [34] = target: GalNAc(b1-4)GlcNAc6S
# Procedure, shortened: as §1
# [35] = target: GalNAc(b1-6)GalNAc
# Procedure, shortened: as §1
# [36] = target: GalNAc3S(b1-4)GlcNAc
# Procedure, shortened: as §1
# [37] = target: GalNAc3S(b1-4)GlcNAc3S
# Procedure, shortened: as §1
# [38] = target: GalNAc3S(b1-4)[Fuc(a1-3)]GlcNAc
# Procedure, shortened: as §1
# [39] = target: GalNAc4S6S(b1-4)GlcNAc
# Procedure, shortened: as §1
# [40] = target: GalNAc6S(b1-4)GlcNAc
# Procedure, shortened: as §1
# [41] = target: Glc(a1-4)Glc
# Procedure, shortened: as §1
# [42] = target: Glc(a1-4)Glc(a1-4)Glc(a1-4)Glc
# Procedure, shortened: as §1
# [43] = target: Glc(a1-6)Glc(a1-6)Glc
# Procedure, shortened: as §1
# [44] = target: Glc(a1-6)Glc(a1-6)Glc(a1-6)Glc
# Procedure, shortened: as §1
# [45] = target: Glc(b1-4)Glc
# Procedure, shortened: as §1
binder,measurement,setting,value
Clec18A (Homo sapiens) (protein) PFHTCDLRIDGDCFMVSSEADTYYRARMKCQRKGGVLAQIKRQKVQDILAFYLGRLETTNEVIDSDFETRNFWIGLTYKTAKDSFRWATGEHQAFTSFAFGQPDNHGFGNCVELQASAAFNWNDQRCKTRNRYICQ,glycan array binding signal (z-score),[1],-0.446
same,glycan array binding signal (z-score),[2],-0.156
same,glycan array binding signal (z-score),[3],-0.415
same,glycan array binding signal (z-score),[4],1.54
same,glycan array binding signal (z-score),[5],-0.492
same,glycan array binding signal (z-score),[6],0.227
same,glycan array binding signal (z-score),[7],-0.677
same,glycan array binding signal (z-score),[8],-0.537
same,glycan array binding signal (z-score),[9],-0.21
same,glycan array binding signal (z-score),[10],-0.378
same,glycan array binding signal (z-score),[11],-0.79
same,glycan array binding signal (z-score),[12],-0.915
same,glycan array binding signal (z-score),[13],3.79
same,glycan array binding signal (z-score),[14],-0.347
same,glycan array binding signal (z-score),[15],-0.155
same,glycan array binding signal (z-score),[16],0.18
same,glycan array binding signal (z-score),[17],0.079
same,glycan array binding signal (z-score),[18],0.22
same,glycan array binding signal (z-score),[19],-0.664
same,glycan array binding signal (z-score),[20],0.305
same,glycan array binding signal (z-score),[21],0.599
same,glycan array binding signal (z-score),[22],-0.691
same,glycan array binding signal (z-score),[23],0.82
same,glycan array binding signal (z-score),[24],1.13
same,glycan array binding signal (z-score),[25],-0.779
same,glycan array binding signal (z-score),[26],0.373
same,glycan array binding signal (z-score),[27],-0.752
same,glycan array binding signal (z-score),[28],0.024
same,glycan array binding signal (z-score),[29],-0.71
same,glycan array binding signal (z-score),[30],-0.05
same,glycan array binding signal (z-score),[31],0.033
same,glycan array binding signal (z-score),[32],1.3
same,glycan array binding signal (z-score),[33],-0.852
same,glycan array binding signal (z-score),[34],0.066
same,glycan array binding signal (z-score),[35],0.096
same,glycan array binding signal (z-score),[36],0.9
same,glycan array binding signal (z-score),[37],-0.807
same,glycan array binding signal (z-score),[38],2.83
same,glycan array binding signal (z-score),[39],-0.491
same,glycan array binding signal (z-score),[40],-0.023
same,glycan array binding signal (z-score),[41],-0.275
same,glycan array binding signal (z-score),[42],-0.768
same,glycan array binding signal (z-score),[43],-0.771
same,glycan array binding signal (z-score),[44],-0.823
same,glycan array binding signal (z-score),[45],-0.586
